# Source: PMC7819943, “Rice protein-binding microarrays: a tool to detect cis-acting elements near promoter regions in rice”
# Amino acid sequences for entries named in this document (tags omitted).
# UniProt Q0JBA9, entry or part of it: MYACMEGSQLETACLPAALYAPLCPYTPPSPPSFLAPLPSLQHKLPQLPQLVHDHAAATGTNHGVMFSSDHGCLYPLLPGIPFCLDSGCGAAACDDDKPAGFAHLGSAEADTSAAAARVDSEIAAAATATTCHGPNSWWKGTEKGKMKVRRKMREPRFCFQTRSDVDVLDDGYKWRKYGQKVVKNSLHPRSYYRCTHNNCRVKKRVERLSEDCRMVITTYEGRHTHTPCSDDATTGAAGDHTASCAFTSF
# This is one part of the list.
# Target: OsWRKY34 (Oryza sativa, UniProt Q0JBA9 1-250)
# Experiment: protein-binding microarray (RPBM); PBS, 2% BSA, 51.3 ng/ul salmon testes DNA, 50 uM zinc acetate, 200 nM TF, 25 C, 1 h; high values mean tight binding
# Conditions: protein: recombinant; tags: N-terminal polyhistidine and DsRed monomer fusion (pET32a); label: CyDye5-dUTP incorporated in the synthesized complementary strand; 3' TTTTT single-stranded linker to array surface; dsDNA, one strand shown
# Procedure, shortened: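 Transcription factors were each fused at the N-terminus to a polyhistidine tag plus DsRed and expressed in E. coli BL21-CodonPlus before Ni–NTA purification. Binding to a double-stranded custom Agilent array was carried out with 200 nM protein at 25 °C for 1 h in PBS, 2% BSA, salmon testes DNA and 50 µM zinc acetate. The binding signal is per-feature fluorescence intensity, in arbitrary units, on an Axon 4000B scanner.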
row,Sequence,binding signal
1,GGTGCTCTCCAGTCTCTCTCCTGCTCTCCACCCACACAGCCGGAGTCACCTAGTGCAG,9720 fluorescence intensity (a.u.)
2,GTCCCACATGGTTTATTATTTTTTCGGATCAAATTGCCACCGGAGTCACCTAGTGCAG,9650 fluorescence intensity (a.u.)
3,ACTATTTAATTAGCTACTTGTCTTATTGACTATTTTCCAACGGAGTCACCTAGTGCAG,9620 fluorescence intensity (a.u.)
4,TATCTGCATATTTGACACCCGCGGCGCTGCGCTATAAAGACGGAGTCACCTAGTGCAG,8180 fluorescence intensity (a.u.)
5,TCTTCGTCTACCTCTGTCATGTGCCTGTATCGTACACGCTCGGAGTCACCTAGTGCAG,8210 fluorescence intensity (a.u.)
6,TCAGATTCTCTCTGCTTGCATTGTGTGTACGCATGTTTTTCGGAGTCACCTAGTGCAG,9850 fluorescence intensity (a.u.)
7,AACATCGGTATTTAACCTAATCGGCTGCCTTCTATTGACGCGGAGTCACCTAGTGCAG,8650 fluorescence intensity (a.u.)
8,TCCATTCTCGTGCTTTTCAAACTACTAAACGTGTGTTTTTCGGAGTCACCTAGTGCAG,10300 fluorescence intensity (a.u.)
9,GGGAGGGGATGTGCTTCATGATGGACCGCGGCGGCGACCGCGGAGTCACCTAGTGCAG,14700 fluorescence intensity (a.u.)
10,AAGCATTCCTCCCTCCCATCCACCACCCGCCTCCGCGCGCCGGAGTCACCTAGTGCAG,8160 fluorescence intensity (a.u.)
11,CATGTTCATCCTCATTTGACTTGACAATATTATTTCGCCACGGAGTCACCTAGTGCAG,9240 fluorescence intensity (a.u.)
12,TACTTTCGGATAGCTGGTATTCCTTGGTTGTCTCGGAAAACGGAGTCACCTAGTGCAG,10000 fluorescence intensity (a.u.)
13,CTGCTGCGCTCTCTCCCCGCGCGCGCGCGCGCCTCCCTCCCGGAGTCACCTAGTGCAG,8470 fluorescence intensity (a.u.)
14,TGTAATGTAAGCTTCATCCATAGTATCAGTATATTCTATTCGGAGTCACCTAGTGCAG,9370 fluorescence intensity (a.u.)
15,GGCGGGGCGGATCCGAGGGGCGAAGTGGGTCGGGCGGCGGCGGAGTCACCTAGTGCAG,9480 fluorescence intensity (a.u.)
16,GTTCACGCCGCCGCCACCAATCCTCCCGGCGCCCCAGCCGCGGAGTCACCTAGTGCAG,8420 fluorescence intensity (a.u.)
17,CTAATTTACAGCCCGGTTGTACACTGCTCCCAATATTGCTCGGAGTCACCTAGTGCAG,10600 fluorescence intensity (a.u.)
18,AGTCCAAAATTTTCATTTATGTCCCGGTTTGATTTTTGGACGGAGTCACCTAGTGCAG,9360 fluorescence intensity (a.u.)
19,GTCATCTTCTTTTTTTCTTTTGTGAGGTGTCCTAATAAAACGGAGTCACCTAGTGCAG,9230 fluorescence intensity (a.u.)
20,GCGTTTTTGTCTCTCTGCTCTCTGCTGCTGCTGCTGGGTCCGGAGTCACCTAGTGCAG,11300 fluorescence intensity (a.u.)
21,CCTCTCGCCCTTGTCTCGTTTCGCGGAGGAACCGAGGAAACGGAGTCACCTAGTGCAG,9880 fluorescence intensity (a.u.)

# Shown with bars between the fields: part of the list above.
row | Sequence | binding signal
8 | TCCATTCTCGTGCTTTTCAAACTACTAAACGTGTGTTTTTCGGAGTCACCTAGTGCAG | 10300 fluorescence intensity (a.u.)
9 | GGGAGGGGATGTGCTTCATGATGGACCGCGGCGGCGACCGCGGAGTCACCTAGTGCAG | 14700 fluorescence intensity (a.u.)
10 | AAGCATTCCTCCCTCCCATCCACCACCCGCCTCCGCGCGCCGGAGTCACCTAGTGCAG | 8160 fluorescence intensity (a.u.)

# (further entries)

row,Sequence,binding signal
1,AATCAATGTCATTTTTGGTCAAATTTTGCTTTCCATTTTTCGGAGTCACCTAGTGCAG,12000 fluorescence intensity (a.u.)
2,GACTTCCATTTTCTCTTATCCAGGCAAACCAAACAAGTCACGGAGTCACCTAGTGCAG,8050 fluorescence intensity (a.u.)
3,CTCTGTCTATGATAATAAGGTTTTGGTTTGTTTCTAAGTTCGGAGTCACCTAGTGCAG,8420 fluorescence intensity (a.u.)
4,TATGATTTTTTTCTTCTTCTTCTTCTTCTTCTTCTTCAAACGGAGTCACCTAGTGCAG,8980 fluorescence intensity (a.u.)
5,TCCACCCCGGCCGCTCTCCTCTGCATCCTCTGCCGGTGTCCGGAGTCACCTAGTGCAG,10300 fluorescence intensity (a.u.)
6,TGGTCAATCAGGTTTGTCGTCCAGCCCGCATTTCCTTGCACGGAGTCACCTAGTGCAG,9340 fluorescence intensity (a.u.)
7,CAAGCAATCCCACACTTCCTTTGCCGATCTCTTCTTTGCCCGGAGTCACCTAGTGCAG,8340 fluorescence intensity (a.u.)
8,CCCTTTTTCTAAACGATTTTCGTATGATTGTTTGCTACCTCGGAGTCACCTAGTGCAG,8060 fluorescence intensity (a.u.)
9,TTTGAGGTTGATTTTGAGGTTTTTTTTTTCATCGATGCTTCGGAGTCACCTAGTGCAG,8150 fluorescence intensity (a.u.)
10,GCCGCCGCTGTCGCCATCCACGCTCCGAGCGCCACTGCCACGGAGTCACCTAGTGCAG,9610 fluorescence intensity (a.u.)
11,CCGCCACGCGCCACCCATCTCTTCACCGCGTGCTGCCCTCCGGAGTCACCTAGTGCAG,9610 fluorescence intensity (a.u.)
12,CACATCACTCCATGCATCTACTCTCTAGTAATTATCCATGCGGAGTCACCTAGTGCAG,9610 fluorescence intensity (a.u.)
13,TCATTTCGTCTTTAAATATCTAGTCTAGATTTAATCTCAACGGAGTCACCTAGTGCAG,8150 fluorescence intensity (a.u.)
14,ATGTTGGGAGAATAAATATTGCTGGAGGGGCTGGGGTATGCGGAGTCACCTAGTGCAG,8380 fluorescence intensity (a.u.)
15,TATTTGATGCCGTTGACTTTTTTAAATATGTTTGACCGTTCGGAGTCACCTAGTGCAG,20900 fluorescence intensity (a.u.)
16,AAATTCCATGTCGTTGTTGTTTAACCGCCAGCAGTGGACTCGGAGTCACCTAGTGCAG,8560 fluorescence intensity (a.u.)
17,CATCACTGCGTTTTTTTTCCTTGAGTGCCTTTCTTCTTAGCGGAGTCACCTAGTGCAG,10400 fluorescence intensity (a.u.)
18,CGCTATTTCGATGCCGTTGTCACAATGTCCTGGTTAGTCACGGAGTCACCTAGTGCAG,8480 fluorescence intensity (a.u.)
19,AACTACACGGCCACACCCCATCTGATACTACTCTCATCTCCGGAGTCACCTAGTGCAG,8480 fluorescence intensity (a.u.)
20,TTGACACTCCACAGATGCTCCACTCATTCACCTTTACTAACGGAGTCACCTAGTGCAG,10100 fluorescence intensity (a.u.)
21,GATCCCAATCCACCATGCTCCAAACCCTTGTTGGCGCCGCCGGAGTCACCTAGTGCAG,9240 fluorescence intensity (a.u.)

row,Sequence,binding signal
1,ATATGGCTTCTTTTCTTTGCTTGTTTCGCTGCTGCAGCGACGGAGTCACCTAGTGCAG,9960 fluorescence intensity (a.u.)
2,AGGTTATGCTCTTTACCCTATTTTTCTAATTCATTTTCTTCGGAGTCACCTAGTGCAG,8650 fluorescence intensity (a.u.)
3,TCACGGTGGGGTTTCCGGTATCTGTCAAGTTTTCTTGTTTCGGAGTCACCTAGTGCAG,8280 fluorescence intensity (a.u.)
4,ACTTCTATCTCTCTAGATGATTTGGTCACTGCATTGACCGCGGAGTCACCTAGTGCAG,9950 fluorescence intensity (a.u.)
5,CCACCCATGCGGGCCCCACCCCACAGGAACCTACCCAACCCGGAGTCACCTAGTGCAG,8390 fluorescence intensity (a.u.)
6,GCCATCACCACCACCACCACCACCTCACCGCCGCCTCGCACGGAGTCACCTAGTGCAG,11800 fluorescence intensity (a.u.)
7,AATCTCCACCATCGATGGTCCGTACAATATTGAACAAATGCGGAGTCACCTAGTGCAG,8800 fluorescence intensity (a.u.)
8,GGGTGTGTGGTGTATAAATCGCCAGCCTGTAGGCATGTGACGGAGTCACCTAGTGCAG,9690 fluorescence intensity (a.u.)
9,TCCAACGGCATCCCGCAACCCACGTGTCCCTCACCGCGCGCGGAGTCACCTAGTGCAG,9080 fluorescence intensity (a.u.)
10,TGATCTAAAAATATTGTCTCTTGTCCTGTAGTTTGAATCACGGAGTCACCTAGTGCAG,8270 fluorescence intensity (a.u.)
11,ATGCAATCAACAAACTGTCATCATCTCCAAATTTGCTTCACGGAGTCACCTAGTGCAG,9610 fluorescence intensity (a.u.)
12,CTCGTATAGTTAGCTTGGAGGACTGAGCTTTGTGGGTGGGCGGAGTCACCTAGTGCAG,8880 fluorescence intensity (a.u.)
13,TATTCAAAGGTGTCGGTTCTTGCTATTAGCGCTCCCACGGCGGAGTCACCTAGTGCAG,8210 fluorescence intensity (a.u.)
14,ACGGTTTCTCTATATTTTTTTAATGGTTAGATGTAAATATCGGAGTCACCTAGTGCAG,8650 fluorescence intensity (a.u.)
15,TCTCACTCACTCACACTGTCACTTCCACATTTTCTTTGCTCGGAGTCACCTAGTGCAG,11100 fluorescence intensity (a.u.)
16,TACTCCCTCCGTATTTTAATGTATGACGCCGTTGACTTTTCGGAGTCACCTAGTGCAG,13900 fluorescence intensity (a.u.)
17,AGTGTTAATCTTACTCCTTGTTGTATATTGCTAAGTTTTTCGGAGTCACCTAGTGCAG,12900 fluorescence intensity (a.u.)
18,ACTCCAGCATGATCCACAACACCACTCACCTCATGATTTTCGGAGTCACCTAGTGCAG,8770 fluorescence intensity (a.u.)
19,TCCACGCGTACGTCCAGATCAAACGCCCCAGTTCCGTAGCCGGAGTCACCTAGTGCAG,8370 fluorescence intensity (a.u.)
20,CACCACCACCACCGCTGCTGACTTCATCGCATCAGAACCACGGAGTCACCTAGTGCAG,13200 fluorescence intensity (a.u.)
21,CACAACTATTTCTACTTTTATCATTCCTACCTTTTCTAATCGGAGTCACCTAGTGCAG,8180 fluorescence intensity (a.u.)

row,Sequence,binding signal
1,AATGCAAACTTCATTTGTACCTTTTCCCACTTTTATTACTCGGAGTCACCTAGTGCAG,8500 fluorescence intensity (a.u.)
2,ATCTCACCAACATTACCTTGTTTAAACCGCTGGGTCTTTTCGGAGTCACCTAGTGCAG,10000 fluorescence intensity (a.u.)
3,ACCGCTGCTAGCTGCCGCCCGTCCCACTTCTCCAAGAAAACGGAGTCACCTAGTGCAG,8420 fluorescence intensity (a.u.)
4,TGAATCCACAGCCACGCCACGCGGCCCATGCCTACGCCTCCGGAGTCACCTAGTGCAG,8550 fluorescence intensity (a.u.)
5,GGGTGTTCCTTGTTGTCGTCCGCCTGTCAAATCCTAGTCACGGAGTCACCTAGTGCAG,15900 fluorescence intensity (a.u.)
6,GCCGCCAGTTCTGCCCTCGAGCGCCGCCGCCCGCCGCGCCCGGAGTCACCTAGTGCAG,10300 fluorescence intensity (a.u.)
7,TTAATTTTTGTTGTTCTGGCAAACCTTTCGTTGTAATTGACGGAGTCACCTAGTGCAG,8690 fluorescence intensity (a.u.)
8,GTCGCAACCAACCAACCAACAACCACTCCATCAAACTAACCGGAGTCACCTAGTGCAG,8220 fluorescence intensity (a.u.)
9,CCGCGCCACCTCATGCCGTGACGTGCAGATCCCCTCCTCCCGGAGTCACCTAGTGCAG,9350 fluorescence intensity (a.u.)
10,CATCTCGTGACCTCGCGCCATTGATTTCTTCCTCTGGAGCCGGAGTCACCTAGTGCAG,9650 fluorescence intensity (a.u.)
11,ACGCATGCGCGCGCGCCGCCTCCACCTGCTCTCTGCTCGACGGAGTCACCTAGTGCAG,10000 fluorescence intensity (a.u.)
12,TACAGGCTTACAGCTAGCCAGCGTCCACTTGCACGGTTTTCGGAGTCACCTAGTGCAG,8790 fluorescence intensity (a.u.)
13,ATACGAGCCAAAGACCGTTGACAAGCTAGTCAACAGTCATCGGAGTCACCTAGTGCAG,8910 fluorescence intensity (a.u.)
14,CCATGTGCGCCCATCCTCCCGGCACTAACTCTCAAGCCGACGGAGTCACCTAGTGCAG,9510 fluorescence intensity (a.u.)
15,GGCCATGCTTGAATCTCTCGCCTGACATTCAGACTTCAGACGGAGTCACCTAGTGCAG,8390 fluorescence intensity (a.u.)
16,ATCTCTCTCTGTCGTCTCGCCTCGCCCAAATCAGAAGCGACGGAGTCACCTAGTGCAG,9080 fluorescence intensity (a.u.)
17,TCACTATCTTCACCACTGCACAAGTCATTCATTGTCTTATCGGAGTCACCTAGTGCAG,10300 fluorescence intensity (a.u.)
18,CGTCACGTCAACCCCACAAACTAGGTCAACACCGTCACGTCGGAGTCACCTAGTGCAG,8760 fluorescence intensity (a.u.)
19,ACCACCACCACCACCATCGCACTCCCAACTCCCAAGCCGCCGGAGTCACCTAGTGCAG,9280 fluorescence intensity (a.u.)
20,GAGGGAGGGAGGGAGGGAGACCGCGAGTGTGAGTGACTGCCGGAGTCACCTAGTGCAG,10200 fluorescence intensity (a.u.)
21,TCCCACTCCACCTTTGCCTCGTCGTCTCAATCGCCTTCGTCGGAGTCACCTAGTGCAG,11200 fluorescence intensity (a.u.)
